Source: ChEMBL document CHEMBL3988442, “University of Dundee, Small-Polar-MMV Screening Library” (2021).

Chains of the proteins cited; added tags and fusions are not shown. Residues count along the entry.
UniProt I6X8D2, whole entry: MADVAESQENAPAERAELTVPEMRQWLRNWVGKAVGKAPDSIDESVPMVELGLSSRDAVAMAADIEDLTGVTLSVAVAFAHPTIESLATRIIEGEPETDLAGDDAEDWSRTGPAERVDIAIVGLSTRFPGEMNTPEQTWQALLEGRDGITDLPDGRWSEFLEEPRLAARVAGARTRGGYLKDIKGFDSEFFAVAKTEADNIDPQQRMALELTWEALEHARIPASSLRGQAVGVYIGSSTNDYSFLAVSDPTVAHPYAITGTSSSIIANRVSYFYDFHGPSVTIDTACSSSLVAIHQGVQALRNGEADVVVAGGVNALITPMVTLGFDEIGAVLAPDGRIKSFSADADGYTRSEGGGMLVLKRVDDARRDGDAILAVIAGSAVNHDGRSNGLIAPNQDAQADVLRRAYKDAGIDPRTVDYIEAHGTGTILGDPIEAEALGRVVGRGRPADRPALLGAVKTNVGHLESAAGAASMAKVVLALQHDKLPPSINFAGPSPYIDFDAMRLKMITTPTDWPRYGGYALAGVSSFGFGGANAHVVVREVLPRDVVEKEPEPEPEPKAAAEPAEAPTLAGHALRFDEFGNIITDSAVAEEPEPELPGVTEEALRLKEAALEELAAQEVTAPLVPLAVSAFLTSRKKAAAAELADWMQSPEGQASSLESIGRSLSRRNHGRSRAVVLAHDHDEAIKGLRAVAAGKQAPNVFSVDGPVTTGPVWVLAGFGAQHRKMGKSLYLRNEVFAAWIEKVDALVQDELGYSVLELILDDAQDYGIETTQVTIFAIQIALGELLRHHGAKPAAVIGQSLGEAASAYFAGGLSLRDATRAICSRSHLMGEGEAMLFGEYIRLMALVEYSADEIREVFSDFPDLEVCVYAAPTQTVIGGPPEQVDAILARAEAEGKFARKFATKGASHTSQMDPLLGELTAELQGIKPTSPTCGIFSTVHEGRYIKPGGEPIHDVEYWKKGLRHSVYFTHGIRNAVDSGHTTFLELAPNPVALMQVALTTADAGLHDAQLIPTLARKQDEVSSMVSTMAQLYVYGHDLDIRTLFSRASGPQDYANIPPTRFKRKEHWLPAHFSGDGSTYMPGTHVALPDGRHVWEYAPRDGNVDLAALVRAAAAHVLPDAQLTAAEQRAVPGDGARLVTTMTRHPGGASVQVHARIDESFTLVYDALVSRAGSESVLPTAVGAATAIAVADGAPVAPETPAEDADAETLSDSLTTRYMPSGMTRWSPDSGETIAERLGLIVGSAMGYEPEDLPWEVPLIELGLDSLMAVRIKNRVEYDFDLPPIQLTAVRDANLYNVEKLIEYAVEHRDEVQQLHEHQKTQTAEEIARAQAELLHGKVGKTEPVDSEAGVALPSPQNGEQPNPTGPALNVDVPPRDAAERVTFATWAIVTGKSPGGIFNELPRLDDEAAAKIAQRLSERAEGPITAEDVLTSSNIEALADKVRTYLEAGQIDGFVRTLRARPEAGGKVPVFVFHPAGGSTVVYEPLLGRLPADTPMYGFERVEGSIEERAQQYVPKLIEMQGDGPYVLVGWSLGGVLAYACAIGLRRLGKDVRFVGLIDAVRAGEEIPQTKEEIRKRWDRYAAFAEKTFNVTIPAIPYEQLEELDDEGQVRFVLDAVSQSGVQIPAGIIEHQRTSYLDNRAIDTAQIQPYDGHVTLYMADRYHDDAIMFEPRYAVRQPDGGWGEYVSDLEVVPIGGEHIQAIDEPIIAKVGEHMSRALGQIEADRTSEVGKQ
UniProt A4I591, 1-473: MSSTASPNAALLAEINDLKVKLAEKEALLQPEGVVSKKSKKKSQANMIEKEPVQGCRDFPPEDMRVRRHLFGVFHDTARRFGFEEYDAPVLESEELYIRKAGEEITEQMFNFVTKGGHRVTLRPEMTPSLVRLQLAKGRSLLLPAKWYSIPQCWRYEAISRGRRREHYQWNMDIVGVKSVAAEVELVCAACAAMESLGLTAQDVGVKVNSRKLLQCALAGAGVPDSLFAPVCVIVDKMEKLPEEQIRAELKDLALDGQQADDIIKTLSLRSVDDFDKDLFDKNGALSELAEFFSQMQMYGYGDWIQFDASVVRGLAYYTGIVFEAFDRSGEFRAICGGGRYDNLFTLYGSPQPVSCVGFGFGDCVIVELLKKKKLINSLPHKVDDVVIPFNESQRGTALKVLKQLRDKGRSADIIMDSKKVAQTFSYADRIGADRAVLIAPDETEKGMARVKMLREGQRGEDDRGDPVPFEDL
UniProt P9WNZ1, whole entry: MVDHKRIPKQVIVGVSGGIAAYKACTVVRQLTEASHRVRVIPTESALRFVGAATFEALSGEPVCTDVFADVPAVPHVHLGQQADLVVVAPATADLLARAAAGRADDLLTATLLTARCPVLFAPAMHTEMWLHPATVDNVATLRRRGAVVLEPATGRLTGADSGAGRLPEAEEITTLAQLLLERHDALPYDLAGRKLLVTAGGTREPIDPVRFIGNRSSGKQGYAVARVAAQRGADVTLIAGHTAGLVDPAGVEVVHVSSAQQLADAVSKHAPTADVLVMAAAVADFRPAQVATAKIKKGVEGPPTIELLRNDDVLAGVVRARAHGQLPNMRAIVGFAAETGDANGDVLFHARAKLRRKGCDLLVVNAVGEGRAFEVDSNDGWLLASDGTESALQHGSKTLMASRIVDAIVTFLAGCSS

A: 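Polyketide synthase Pks13, Mycobacterium tuberculosis (UniProt I6X8D2). Enzyme assay of the thioesterase domain of polyketide synthase 13; the read-out is not stated. Concentration: 30 µM. Higher reads as stronger inhibition (inferred from which compounds were picked for retests). Size under these conditions: about 67,000 compounds, about 300 of them at 50% or above in at least one test.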
B: 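Enzyme assay of histidyl-tRNA synthetase; the read-out is not stated. Target: Histidine-tRNA ligase, Leishmania infantum (UniProt A4I591). Concentration: 30 µM. The record gives no direction; compounds that gave an IC50 in retests scored well above the rest, so higher reads as stronger inhibition. The assay is labelled LdHisRS but filed under L. infantum. Of about 69,000 compounds tested this way, about 410 (0.6%) reached 50% or more in at least one test.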
C: 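Enzyme assay of CoaBC with a phosphate dye (Biomol Green) read at 650 nm. Target: Coenzyme A biosynthesis protein CoaBC, Mycobacterium tuberculosis (UniProt P9WNZ1). Concentration: 30 µM. Higher reads as stronger inhibition, judged from the few compounds that gave an IC50. Most strong results did not repeat in a second test. About 67,000 compounds were tested under these conditions; 0.06% (about 40) showed 50% or more at least once.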

Results are given as percent effect.
The controls that fix the scale are not given in the record; negative values are as filed.
Compounds were drawn at random from those tested, without regard to their results.
Two or more numbers in one place are separate tests of the same structure; such repeats can differ widely.
A dash means the value is not listed here; it may have been measured.

| # | Compound | A | B | C |
|---|---|---|---|---|
| 1 | `Cn1cc(CN2CCCn3cnc(COCC4CC4)c3C2)cn1` | -20.46 | 18.87 | 3.173 |
| 2 | `Cc1noc(C)c1C(=O)N1CCC2(CC1)c1nc[nH]c1CCN2C` | -25.07 | 15.62 | 6.725 |
| 3 | `Cc1cs/c(=N\C(=O)Cn2nc(N3CCC(C)CC3)ccc2=O)[nH]1` | -2.225 | 3.297 | -8.491 |
| 4 | `CN(Cc1ccc(OC(F)F)cc1)C(=O)CS(=O)(=O)c1ccc(Cl)cc1` | 21.6 | 19.23 | -1.919 |
| 5 | `CS(=O)(=O)Cc1ccc(CNc2ncc(C#N)cc2Cl)cc1` | 11.72 | 13.7 | -3.984 |
| 6 | `CCOC(=O)NCCNC(=O)c1cc(Br)cn1C(C)C` | -4.94 | 17.81 | 5.449 |
| 7 | `Cc1cc(C)nc(NC2CC(=O)N(C(C)(C)C)C2)n1` (centres unmarked) | -11.26 | -1.299 | 1.582 |
| 8 | `O=C(Cn1cc(-c2ccccc2)ncc1=O)NC1CCCCC1` | -13.61 | -20.78 | 1.277 |
| 9 | `C/C=C(/C)C(=O)NS(=O)(=O)c1ccc(C(F)(F)F)cc1` | 10.72 | 6.667 | 11.48 |
| 10 | `CS(=O)(=O)NCC1CCCN(C(=O)c2ccc(Cl)o2)C1` (centres unmarked) | - | 15.62 | 0.2635 |
| 11 | `CN1CCC(CCNC(=O)N2CCN(Cc3ccon3)CC2)CC1` | -6.219 | 13.39 | -7.851 |
| 12 | `O=S(=O)(NC[C@]12COC[C@H]1CN(CCc1ccccc1)C2)C1CC1` | -23 | 10.53 | 4.684 |
| 13 | `CC(C)N1CCC(NC(=O)NC2CCOc3ccc(Br)cc32)CC1` (centres unmarked) | -14.05 | 19.4 | -8.835 |
| 14 | `CCc1ccc(CNC(=O)NC(C)CN2CCOCC2)s1` (centres unmarked) | -19.78 | 28.57 | 7.692 |
| 15 | `Cc1cc(C)c(Cn2cncn2)cc1CN1CC[C@H](CO)[C@@H](O)C1` | -1.282 | -6.25 | 0.6508 |
| 16 | `Cc1cc(-c2nn3c(C(C)C)nnc3s2)on1` | -6.812 | 10.87 | 2.906 |
| 17 | `CCc1cc(C(=O)NCC2CCN(Cc3cccc(C#N)c3)C2)on1` (centres unmarked) | -29.9 | 20 | 10.58 |
| 18 | `O=C(NCc1nc2ccccc2[nH]1)c1cnn2c1OCCC2` | -15.93 | 13.91 | -3.594 |
| 19 | `COCCN1CCCN(C(=O)c2scnc2C)CC1` | 2.079 | 22.47 | 2.046 |
| 20 | `CCN(CC)C1CCN(C(=O)NCc2cccc(-n3cccn3)c2)C1` (centres unmarked) | -27.67 | 13.27 | 24.77 & 15.87 |
| 21 | `Cn1ccnc1C(=O)N1CCC2(CCCN2CC2CC2)CC1` | -38.29 | 14.53 | 7.083 |
| 22 | `OC(COc1ccc2c(c1)OCO2)CN1CC(n2cccn2)C1` (centres unmarked) | -25.33 | 11.43 | -0.6593 |
| 23 | `CC(C)c1ncc(CN2CCC(O)(c3ccccc3F)CC2)cn1` | -4.761 | 2.899 | -11.83 |
| 24 | `CC(C)COC(C)C(=O)NCc1cc(F)cc(F)c1` (centres unmarked) | -12.15 | 8 | 3.333 |
| 25 | `O=c1[nH]c2cc3c(cc2cc1CN1CCCC1c1ccccn1)CCC3` (centres unmarked) | -17.27 | 43.37 | 11.65 |
| 26 | `O=C(NCC(O)c1ccsc1)Nc1cccs1` (centres unmarked) | 21.3 | 34.78 | -0.4843 |
| 27 | `CC(C)NC(=O)N1CCN(CC2CC2)CC2(CNC(=O)C2)C1` (centres unmarked) | 5.708 | 17.95 | 5.764 |
| 28 | `Cc1nn(C)c(C)c1CN(Cc1cccn1-c1ccccn1)C(C)C` | 4.855 | 15.49 | 8.238 |
| 29 | `Fc1ccc(-c2noc(CN3CCC(c4cc[nH]n4)CC3)n2)cc1` | -8.339 | 11.29 | 5.134 |
| 30 | `Cc1c(-c2nc(-c3cccc(CN4CCOCC4)c3)no2)cnn1C` | -0.1366 | 16.44 | 5.623 |
| 31 | `Cc1nccn1-c1ccc(CNS(=O)(=O)N2CCC(C)CC2)cn1` | -15.22 | 8.333 | -1.442 |
| 32 | `Cc1cc(C)n(CC(C)NC(=O)C2(c3ccccc3F)CC2)n1` (centres unmarked) | -32.71 | 17.7 | 1.384 |
| 33 | `CCC(NS(=O)(=O)c1ccc(C(=O)NC2CC2)cc1)c1cnn(C)c1` (centres unmarked) | -34.21 | 14.47 | 2.581 |
| 34 | `Cc1nc(CNC(C)c2ccc(OCC(=O)NC3CC3)cc2)cs1` (centres unmarked) | -3.909 | 21.62 | 8.616 |
| 35 | `COc1ccccc1N1CCN(C(=O)Cn2nc(C)cc2C)CC1(C)C` | 8.946 | 1.01 | -0.2415 |
| 36 | `Cc1noc(C)c1CCc1nc(C2CCOC2)no1` (centres unmarked) | -1.233 | 20.48 | 5.646 |
| 37 | `CN(Cc1cccc(F)c1)C(=O)CN1CCCC1CCc1ccccc1` (centres unmarked) | -5.938 | 14.15 | -13.64 |
| 38 | `Cc1nccc([C@@H]2C[C@@H]3CCN(Cc4ccco4)C[C@H]3O2)n1` | -18.31 | 14.55 | 5.462 |
| 39 | `Cc1ccccc1CSc1nc(N)cc(N2CCOC(C(N)=O)C2)n1` (centres unmarked) | -30.31 | 15.09 | -5.727 |
| 40 | `Cn1ncc2c(N3CCCC4(CCNC4)C3)nc(C(C)(C)C)nc21` (centres unmarked) | -38.1 | 15.38 | -27.6 |
| 41 | `Cc1cc(N(C)C)nc(N2CCN(C(C)c3nc(C)no3)CC2)n1` (centres unmarked) | -3.86 | 7.5 | - |
| 42 | `CN(Cc1cc(-c2ccccc2)no1)C(=O)CNS(C)(=O)=O` | -12.44 | 0 | -3.265 |
| 43 | `CNC(=O)[C@@H]1C[C@@H](N)CN1C1CCN(c2ccccc2F)CC1` | -39.35 | 7.692 | 6.237 |
| 44 | `O=C(c1c[nH]cn1)N1CCC(F)(F)C2(CCN(c3cnccn3)C2)C1` (centres unmarked) | -2.786 | 9.735 | -0.2105 |
| 45 | `CN(Cc1cccc(O)c1)CC1CCCN(CCc2ccc(Cl)cc2)C1` (centres unmarked) | -7.543 | 18.87 | -44.93 |
| 46 | `COCCN(Cc1ccccn1)C(=O)c1ccc(=O)n(C)c1` | -1.904 | 6.452 | 1.599 |
| 47 | `CC(C)NC(=O)N1CCN2C(=O)N(Cc3ccc(F)cc3)C[C@H]2C1` | 0.9109 | 25 | -1.58 |
| 48 | `COc1ccccc1C1(O)CCCN(C(=O)c2csc(C(C)=O)c2)C1` (centres unmarked) | 17.07 | 9.859 | 0.2375 |
| 49 | `COc1cc(NC(=O)NCc2ccccn2)cc(OC)c1` | -10.25 | 6.593 | -0.122 |
| 50 | `COC(=O)c1cc(NCC(=O)NC(N)=O)cc(C(F)(F)F)c1` | -3.264 | 8.219 | 4.545 |
| 51 | `Cc1ccc(F)cc1S(=O)(=O)N(C)CC(N)=O` | -6.614 | 11.43 | -0.2151 |
| 52 | `CN(C)C(=O)CN1CCCCC1c1nc(N)ncc1-c1ccc(Cl)cc1` (centres unmarked) | 2.976 | 18 | 6.568 |
| 53 | `Cc1ccc(N2C[C@H]3CCC[C@@]3(COc3cccnc3)C2)nn1` | -28.6 | 23.68 | 7.536 |
| 54 | `CCC[C@H]1CN(Cc2cc(C)no2)C[C@@H]1NC(=O)C1(COC)CCC1` | -38.17 | 14.29 | - |
| 55 | `O=C(NCc1cccnc1-n1cncn1)c1ccc2c(c1)CCO2` | -4.969 | 11.4 | 3.376 |
| 56 | `Cc1nc2sccn2c1CN(CCCN(C)C)Cc1ccccn1` | -2.404 | 5.594 | 6.78 |
| 57 | `C=Cn1ncc(CN2C[C@@H]3CCCN3C[C@H]2Cc2ccccc2)c1C` | -0.3678 | 12.37 | 0 |
| 58 | `Cc1ccc(CN2CCc3onc(C(=O)Nc4cccnc4)c3C2)o1` | 9.729 | 15.38 | 4.242 |
| 59 | `CCN1CCN(C(=O)c2cnn(-c3ccccc3Cl)c2)CC1` | 0.6495 | 30.95 | 1.068 |
| 60 | `CC(C(=O)NCc1ccnc(Oc2ccc(F)cc2)c1)n1cncn1` (centres unmarked) | -13.53 | 26.92 | -1.919 |
| 61 | `Cc1occc1C(=O)N1CCC2(CC1)C(c1cnn(C)c1)CC(=O)N2C` (centres unmarked) | -23.05 | 7.519 | 12.85 |
| 62 | `O=C1CSc2ccccc2N1CC(=O)N1CCCCC1c1nccs1` (centres unmarked) | -19.15 | 21.88 | 9.761 |
| 63 | `Cc1nnc(C2Cc3ccccc3CN2Cc2ncc(Cl)n2C)o1` (centres unmarked) | -9.136 | 5.208 | 1.339 |
| 64 | `CC(C)OC(=O)N1C[C@H]2CC[C@@H]1CN(Cc1cccnc1)C2` | -27.61 | 4.301 | 5.144 |
| 65 | `Cn1cnc2cc(C(=O)N3CCC(c4ccccc4C(=O)O)C3)cnc21` (centres unmarked) | -0.8125 | 9.167 | 6.335 |
| 66 | `Cc1ccc2cc(C(=O)NCCN3CCS(=O)(=O)CC3)c(C)nc2c1` | - | 17.33 | 2.066 |
| 67 | `O=C(CCCn1cncn1)NC1(c2ccccc2)CCC1` | -13.28 | 17.92 | -6.364 |